Measurements published in the supplement of paper PMC4604168 (melanoma cell lines).
This is one part of the list. Single values are uncertain, as repeats are few or missing.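 Cells were imaged in 1,536-well plates, and nuclei stained with an antibody against cleaved PARP were counted against all DNA-stained nuclei to give the apoptosis fraction. Screening doses were chosen to leave most cells alive, and resting and induced cleaved-PARP levels differ strongly between cell lines.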

Key:
Test in all cases: cleaved PARP positive nuclei fraction relative to DMSO control; melanoma cells; higher = more apoptosis
Conditions in all cases: library dose: low library concentration; 72 h
WM115 = system: WM115
WM1716 = system: WM1716
WM1745 = system: WM1745
WM3526 = system: WM3526
WM3619 = system: WM3619
WM451Lu = system: WM451Lu

Compound | cleaved PARP positive nuclei fraction (WM115) [%] | cleaved PARP positive nuclei fraction (WM1716) [%] | cleaved PARP positive nuclei fraction (WM1745) [%] | cleaved PARP positive nuclei fraction (WM3526) [%] | cleaved PARP positive nuclei fraction (WM3619) [%] | cleaved PARP positive nuclei fraction (WM451Lu) [%]
CCc1ccc(CCOc2ccc(CC3SC(=O)NC3=O)cc2)nc1 (stereo not drawn) [pioglitazone] + O=C1NC(=O)/C(=C/c2ccc(-c3ccc(F)cc3O)o2)S1 [AS252424] (first compound 2 µM, partner dose 1 µM) | 77.4 | 43.2 | 114 | 94.2 | 86 | 108
CCN(CC)CCCCNc1ncc2cc(-c3cc(OC)cc(OC)c3)c(NC(=O)NC(C)(C)C)nc2n1 + COc1cc(N2CCC(N3CCN(C)CC3)CC2)ccc1Nc1ncc(Cl)c(Nc2ccccc2S(=O)(=O)C(C)C)n1 [NVP-TAE684] (first compound 0.1 µM, partner dose 0.08 µM) | 136 | 157 | 112 | 36.1 | 71.6 | 441
Oc1cc(-c2nc(-c3ccccc3)[nH]c2-c2ccncc2)ccc1Cl + O=C(O)C(=O)Nc1sc2c(c1C(=O)O)CCNC2 [TCS401] (first compound 0.2 µM, partner dose 1.66667 µM) | 63.6 | 84.5 | 150 | 106 | 82.4 | 114
N#Cc1c(O)c2c(-c3ccc(-c4ccccc4O)cc3)csc2[nH]c1=O + COc1ccc(-c2ccc3c(N4CCOCC4)nc(N4C[C@@H](C)O[C@@H](C)C4)nc3n2)cc1CO [KU0063794] (first compound 2 µM, partner dose 0.02 µM) | 236 | 72.1 | 99.1 | 75.4 | 77.7 | 65.6
O=C(O)c1ccc(-c2c[nH]c3ncc(-c4ccccc4)cc23)cc1C1CCCC1 + Oc1nc(-c2ccc(C(F)(F)F)cc2)nc2c1CSCC2 [XAV939] (first compound 0.16 µM, partner dose 2 µM) | 212 | 155 | 346 | 161 | 212 | 62.2
N#Cc1c(O)c2c(-c3ccc(-c4ccccc4O)cc3)csc2[nH]c1=O + COc1ccc(COc2ccc(Cc3cnc(N)nc3N)cc2OC)cc1 [GW2580] (first compound 2 µM, partner dose 1 µM) | 65.4 | 78.1 | 121 | 63.8 | 156 | 200
CCc1ccc(CCOc2ccc(CC3SC(=O)NC3=O)cc2)nc1 (stereo not drawn) [pioglitazone] + COc1ccc2c(c1)CCC1C2CCC2(C)C(NCCCCCCN3C(=O)C=CC3=O)CCC12 [U73122] (first compound 2 µM, partner dose 0.4 µM) | 226 | 67.7 | 228 | 71 | 65.1 | 110
NCC(=O)Nc1ccc(-n2nc(C(F)(F)F)cc2-c2ccc3c(ccc4ccccc43)c2)cc1 + c1cc(-c2cnn3cc(-c4ccc(OCCN5CCCCC5)cc4)cnc23)ccn1 [Dorsomorphin] (first compound 1 µM, partner dose 0.4 µM) | 109 | 96.5 | 114 | 116 | 72.7 | 82.2
CCc1ccc(CCOc2ccc(CC3SC(=O)NC3=O)cc2)nc1 (stereo not drawn) [pioglitazone] + COc1cc2ncnc(Nc3ccc(Oc4ccccc4)cc3)c2cc1OC [SrcI1] (first compound 2 µM, partner dose 2 µM) | 45.6 | 152 | 113 | 63.7 | 84.2 | 47.7
O=C(O)C(=O)Nc1sc2c(c1C(=O)O)CCNC2 + Oc1nc(-c2ccc(C(F)(F)F)cc2)nc2c1CSCC2 [XAV939] (first compound 1.66667 µM, partner dose 2 µM) | 120 | 201 | 144 | 323 | 169 | 67.4
Oc1nc(-c2ccc(C(F)(F)F)cc2)nc2c1CSCC2 + c1cc(-c2cnn3cc(-c4ccc(OCCN5CCCCC5)cc4)cnc23)ccn1 [Dorsomorphin] (first compound 2 µM, partner dose 0.4 µM) | 151 | 130 | 263 | 68.1 | 79.8 | 54.6
NCC(=O)Nc1ccc(-n2nc(C(F)(F)F)cc2-c2ccc3c(ccc4ccccc43)c2)cc1 + COc1cc(N2CCC(N3CCN(C)CC3)CC2)ccc1Nc1ncc(Cl)c(Nc2ccccc2S(=O)(=O)C(C)C)n1 [NVP-TAE684] (first compound 1 µM, partner dose 0.08 µM) | 222 | 17.7 | 121 | 123 | 81.3 | 156
CCN(CC)CCCCNc1ncc2cc(-c3cc(OC)cc(OC)c3)c(NC(=O)NC(C)(C)C)nc2n1 + Cn1cc(/C=C2\C(=O)Nc3cccnc32)c2ccccc21 [GW441756] (first compound 0.1 µM, partner dose 0.4 µM) | 145 | 159 | 264 | 78.5 | 80.9 | 103
N#Cc1c(O)c2c(-c3ccc(-c4ccccc4O)cc3)csc2[nH]c1=O + COc1ccc2c(c1)CCC1C2CCC2(C)C(NCCCCCCN3C(=O)C=CC3=O)CCC12 [U73122] (first compound 2 µM, partner dose 0.4 µM) | 138 | 112 | 92 | 57.9 | 90.5 | 252
NCC(=O)Nc1ccc(-n2nc(C(F)(F)F)cc2-c2ccc3c(ccc4ccccc43)c2)cc1 + Oc1nc(-c2ccc(C(F)(F)F)cc2)nc2c1CSCC2 [XAV939] (first compound 1 µM, partner dose 2 µM) | 47.2 | 136 | 95.3 | 107 | 100 | 787
CN(NC(=O)CC(=O)NN(C)C(=S)c1ccccc1)C(=S)c1ccccc1 + CCCCCCCCCCCC1=C(O)C(=O)C=C(O)C1=O [Embelin] (first compound 0.006 µM, partner dose 1.2 µM) | 81.4 | 101 | 197 | 146 | 102 | 39.8
c1cc(-c2cnn3cc(-c4ccc(OCCN5CCCCC5)cc4)cnc23)ccn1 [Dorsomorphin] + COc1cc(N2CCC(N3CCN(C)CC3)CC2)ccc1Nc1ncc(Cl)c(Nc2ccccc2S(=O)(=O)C(C)C)n1 [NVP-TAE684] (first compound 0.4 µM, partner dose 0.08 µM) | 176 | 122 | 125 | 99.5 | 135 | 62.6
CCc1ccc(CCOc2ccc(CC3SC(=O)NC3=O)cc2)nc1 (stereo not drawn) [pioglitazone] + CC(C)CCN1c2nc(Nc3cc(F)c(O)c(F)c3)ncc2N(C)C(=O)C1C [BID1870] (first compound 2 µM, partner dose 0.2 µM) | 199 | 153 | 111 | 147 | 84.9 | 221
CN(C)S(=O)(=O)c1ccc2c(c1)/C(=C/c1cc3c([nH]1)CCCC3)C(=O)N2 + CN(NC(=O)CC(=O)NN(C)C(=S)c1ccccc1)C(=S)c1ccccc1 [STA4783] (first compound 0.4 µM, partner dose 0.006 µM) | 89.2 | 120 | 345 | 70.6 | 148 | 29.3
COc1cc2c(Oc3ccc4[nH]c(C)cc4c3F)ncnc2cc1OCCCN1CCCC1 [cediranib] + COc1ccc(COc2ccc(Cc3cnc(N)nc3N)cc2OC)cc1 [GW2580] (first compound 0.4 µM, partner dose 1 µM) | 104 | 104 | 104 | 35.7 | 74.6 | 70.5
NCC(=O)Nc1ccc(-n2nc(C(F)(F)F)cc2-c2ccc3c(ccc4ccccc43)c2)cc1 + COc1cc2c(Oc3ccc4[nH]c(C)cc4c3F)ncnc2cc1OCCCN1CCCC1 [cediranib] (first compound 1 µM, partner dose 0.4 µM) | 81.9 | 140 | 94.7 | 123 | 86.5 | 197
N#Cc1c(O)c2c(-c3ccc(-c4ccccc4O)cc3)csc2[nH]c1=O + Cc1cc([N+](=O)[O-])ccc1NS(=O)(=O)c1cc(Cl)ccc1Cl [FH535] (first compound 2 µM, partner dose 1 µM) | 90 | 62.4 | 96.3 | 101 | 83.1 | 57.2
O=C1NC(=O)/C(=C/c2ccc(-c3ccc(F)cc3O)o2)S1 + c1cc(-c2cnn3cc(-c4ccc(OCCN5CCCCC5)cc4)cnc23)ccn1 [Dorsomorphin] (first compound 1 µM, partner dose 0.4 µM) | 129 | 43.5 | 101 | 80.1 | 94.7 | 56.9
CN(C)S(=O)(=O)c1ccc2c(c1)/C(=C/c1cc3c([nH]1)CCCC3)C(=O)N2 + Oc1nc(-c2ccc(C(F)(F)F)cc2)nc2c1CSCC2 [XAV939] (first compound 0.4 µM, partner dose 2 µM) | 174 | 81.4 | 106 | 92.6 | 89.2 | 178
CN(C)S(=O)(=O)c1ccc2c(c1)/C(=C/c1cc3c([nH]1)CCCC3)C(=O)N2 + O=c1cc(-c2cccc3c2Sc2ccccc2S3)oc(N2CCOCC2)c1 [KU55933] (first compound 0.4 µM, partner dose 1 µM) | 242 | 56.3 | 104 | 151 | 70.5 | 40.1
COc1ccc2c(c1)CCC1C2CCC2(C)C(NCCCCCCN3C(=O)C=CC3=O)CCC12 (stereo not drawn) + Cn1cc(/C=C2\C(=O)Nc3cccnc32)c2ccccc21 [GW441756] (first compound 0.4 µM, partner dose 0.4 µM) | 219 | 42.2 | 115 | 55.5 | 89.5 | 107
O=C(O)C(=O)Nc1sc2c(c1C(=O)O)CCNC2 + CCCCCCCCCCCC1=C(O)C(=O)C=C(O)C1=O [Embelin] (first compound 1.66667 µM, partner dose 1.2 µM) | 62.9 | 101 | 110 | 67 | 65.3 | 118
O=C(O)c1ccc(-c2c[nH]c3ncc(-c4ccccc4)cc23)cc1C1CCCC1 + Oc1cc(-c2nc(-c3ccccc3)[nH]c2-c2ccncc2)ccc1Cl [L779450] (first compound 0.16 µM, partner dose 0.2 µM) | 286 | 92.5 | 108 | 107 | 80.2 | 214

A portion of the results above, as a working copy:
Compound | cleaved PARP positive nuclei fraction (WM115) [%] | cleaved PARP positive nuclei fraction (WM1716) [%] | cleaved PARP positive nuclei fraction (WM1745) [%] | cleaved PARP positive nuclei fraction (WM3526) [%] | cleaved PARP positive nuclei fraction (WM3619) [%] | cleaved PARP positive nuclei fraction (WM451Lu) [%]
COc1cc2c(Oc3ccc4[nH]c(C)cc4c3F)ncnc2cc1OCCCN1CCCC1 [cediranib] + COc1ccc(COc2ccc(Cc3cnc(N)nc3N)cc2OC)cc1 [GW2580] (first compound 0.4 µM, partner dose 1 µM) | 104 | 104 | 104 | 35.7 | 74.6 | 70.5
NCC(=O)Nc1ccc(-n2nc(C(F)(F)F)cc2-c2ccc3c(ccc4ccccc43)c2)cc1 + COc1cc2c(Oc3ccc4[nH]c(C)cc4c3F)ncnc2cc1OCCCN1CCCC1 [cediranib] (first compound 1 µM, partner dose 0.4 µM) | 81.9 | 140 | 94.7 | 123 | 86.5 | 197
